Assay results reported in US20190316206A1.
These are yes or no findings as the source states them, for the method shown. Binding seen in cells or lysates may run through a third protein. Some binding calls cover weakened binding; strength is not graded here.

By UniProt entry, the sequences of proteins in these tests, tags left out.
UniProt P23458: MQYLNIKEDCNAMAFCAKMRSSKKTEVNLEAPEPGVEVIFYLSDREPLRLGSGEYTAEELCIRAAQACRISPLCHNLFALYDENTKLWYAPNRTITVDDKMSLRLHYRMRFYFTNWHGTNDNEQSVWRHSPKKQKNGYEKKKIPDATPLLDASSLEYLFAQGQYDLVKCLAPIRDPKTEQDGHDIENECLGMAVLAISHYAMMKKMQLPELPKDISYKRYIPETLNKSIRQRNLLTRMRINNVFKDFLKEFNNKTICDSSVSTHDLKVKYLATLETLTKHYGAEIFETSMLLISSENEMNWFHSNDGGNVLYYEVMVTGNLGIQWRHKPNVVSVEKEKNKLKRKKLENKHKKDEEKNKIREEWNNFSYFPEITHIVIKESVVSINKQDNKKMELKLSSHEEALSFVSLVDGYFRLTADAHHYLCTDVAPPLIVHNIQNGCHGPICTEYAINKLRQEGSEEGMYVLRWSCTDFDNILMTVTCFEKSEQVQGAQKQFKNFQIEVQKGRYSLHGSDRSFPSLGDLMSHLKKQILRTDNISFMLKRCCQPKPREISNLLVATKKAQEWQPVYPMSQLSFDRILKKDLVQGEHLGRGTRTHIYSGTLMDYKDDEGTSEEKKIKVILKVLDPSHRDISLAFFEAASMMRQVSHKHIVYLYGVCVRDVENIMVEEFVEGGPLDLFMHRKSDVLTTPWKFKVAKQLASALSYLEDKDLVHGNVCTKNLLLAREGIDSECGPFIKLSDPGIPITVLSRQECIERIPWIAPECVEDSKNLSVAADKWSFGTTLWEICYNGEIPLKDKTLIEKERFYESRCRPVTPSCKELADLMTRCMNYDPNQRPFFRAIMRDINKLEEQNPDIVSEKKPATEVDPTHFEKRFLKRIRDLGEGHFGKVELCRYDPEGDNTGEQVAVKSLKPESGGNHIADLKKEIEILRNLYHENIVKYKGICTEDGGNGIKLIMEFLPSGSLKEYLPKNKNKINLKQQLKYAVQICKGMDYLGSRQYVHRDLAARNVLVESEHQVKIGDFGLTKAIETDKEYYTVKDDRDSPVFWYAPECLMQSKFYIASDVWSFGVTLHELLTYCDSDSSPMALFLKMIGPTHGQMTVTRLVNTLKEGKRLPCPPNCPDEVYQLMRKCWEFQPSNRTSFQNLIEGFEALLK
UniProt P35414: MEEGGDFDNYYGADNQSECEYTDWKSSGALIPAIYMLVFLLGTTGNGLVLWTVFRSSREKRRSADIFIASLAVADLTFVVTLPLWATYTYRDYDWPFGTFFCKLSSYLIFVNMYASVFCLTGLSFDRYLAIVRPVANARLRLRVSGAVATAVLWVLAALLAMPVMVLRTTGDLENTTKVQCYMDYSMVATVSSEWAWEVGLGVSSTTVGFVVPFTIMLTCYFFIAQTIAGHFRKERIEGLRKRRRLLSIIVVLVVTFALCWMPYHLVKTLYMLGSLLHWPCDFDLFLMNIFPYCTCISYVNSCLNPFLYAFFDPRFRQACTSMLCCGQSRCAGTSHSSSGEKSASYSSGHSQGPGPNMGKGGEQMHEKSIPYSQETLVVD

Assays:
JAK1 [1] = molecular target: JAK1 (UniProt P23458); assay: co-immunoprecipitation: JAK1 pull-down from A375 cell lysates, immunoblot for APLNR
JAK1 [2] = molecular target: JAK1 (UniProt P23458); assay: co-immunoprecipitation: JAK1 pull-down from A375 cell lysates, immunoblot for APLNR; IgG pull-down as negative control

- binding (JAK1 [1]): binds
- binding (JAK1 [2]): binds
Substance: Apelin Receptor (APLNR) (from UniProt P35414 1-380)
